{"source": "PubChem BioAssay AID344", "about": "(DTP/NCI, 2004)", "system": "mice, LPC-1 plasma cell tumor ip, median survival T/C", "test": "NCI In Vivo Anticancer Drug Screen. Data for tumor model Lieberman Plasma Cell No. 1 (LPC-1) (intraperitoneal) in unknown mice", "settings": "T/C endpoint: median survival time, schedule: Q01DX028 (sc), higher T/C = longer survival", "procedure": "The antitumor activity of compounds was measured in mice bearing transplantable tumors. Survival or tumor size were measured and the results are expressed as the measurement made in the treated group (T) divided by the measurement made in the vehicle treated control group (C). The tumor model used in this assay is Lieberman Plasma Cell No. 1 (LPC-1) (intraperitoneal) in unknown mice", "note": "The list does not hold the whole screen: its compounds were picked by chemical class. Other doses and runs of a compound may be missing. T/C gives the treated animals as a percentage of the vehicle group. For survival time, this PubChem deposit counts one and a half times the control or more as active, and values a quarter to a half above the control carry no call in these data; other NCI protocols may use other cut-offs. Some T/C values are marked as having no survivor count here; that says nothing about deaths at the dose. Schedule codes are those of the source, taken here to give the interval after Q, in days (D) or hours (H), and the number of doses after X.", "data": [{"smiles": "NC(Cc1ccccc1N(CCCl)CCCl)C(=O)O", "note": "(centres undefined)", "values": [{"measurement": "T/C", "setting": "dose: 0.5 mg/kg/injection, vehicle: saline", "value": "165 % of control [survivor count not shown]"}, {"measurement": "T/C", "setting": "dose: 0.8 mg/kg/injection, vehicle: saline", "value": "220 % of control [survivor count not shown]"}, {"measurement": "T/C", "setting": "dose: 1.3 mg/kg/injection, vehicle: saline", "value": "134 % of control [survivor count not shown]"}, {"measurement": "T/C", "setting": "dose: 2.0 mg/kg/injection, vehicle: saline", "value": "111 % of control [survivor count not shown]"}]}, {"smiles": "C[N+](CCCl)(CCCl)Cc1ccc([N+](=O)[O-])cc1", "values": [{"measurement": "T/C", "setting": "dose: 3.0 mg/kg/injection, vehicle: water", "value": "100 % of control [survivor count not shown]"}, {"measurement": "T/C", "setting": "dose: 5.0 mg/kg/injection, vehicle: water", "value": "128 % of control [survivor count not shown]"}, {"measurement": "T/C", "setting": "dose: 8.3 mg/kg/injection, vehicle: water", "value": "105 % of control [survivor count not shown]"}, {"measurement": "T/C", "setting": "dose: 14.0 mg/kg/injection, vehicle: water", "value": "92 % of control [survivor count not shown]"}, {"measurement": "T/C", "setting": "dose: 23.0 mg/kg/injection, vehicle: water", "value": "94 % of control [survivor count not shown]"}]}]}
